Source: ChEMBL document CHEMBL1145365, “The discovery of long acting beta2-adrenoreceptor agonists” (Bioorg Med Chem Lett, 2007)

Key:
[1] = Distribution coefficient, log D of the compound; conditions: octanol/water
[2] = in vitro; conditions: human, Caco-2, pH 7.4

Row | SMILES | logD [1] | Papp A→B at 25 µM [2] [×10⁻⁶ cm/s]
1 | C[C@H](Cc1cccc(CC(=O)NCc2cc(C(F)(F)F)ccc2F)c1)NC[C@H](O)c1ccc(O)c(CO)c1 | 2.2 | 2
2 | C[C@H](Cc1cccc(CC(=O)NCc2c(F)cccc2Cl)c1)NC[C@H](O)c1ccc(O)c(CO)c1 | 1.5 | 
